PubChem BioAssay AID602196, INSERM, 2012

Aim: 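Modifiers of cisplatin sensitivity in A549 cells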
System: human A549 lung cancer cells
Reagents: siRNA pair against human genes
Time to read-out: 48 h transfection before cisplatin; time from cisplatin to read-out not stated
Conditions: cisplatin at a dose killing half of control-siRNA cells; exact dose and duration not given
Measured: 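Cisplatin cell death as a shift from the 50% death seen with control siRNA; siRNAs toxic or growth-blocking alone scored 0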
Scale: two-siRNA summed score (-2 to +2): higher = both siRNAs protect from cisplatin killing; -2 means both sensitise
Active means: 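Each siRNA scores 0 if harmful alone by LDH or WST-1, otherwise +1 if it reduces and -1 if it increases cisplatin killing; a gene is active when both siRNAs agree (sum +2 or -2)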
Calls: active = both siRNAs shift cisplatin killing the same way; inactive = no consistent shift, or siRNA harmful alone
The whole screen tested about 23,000 reagents; below is an unselected part. 455 of all reagents (2%) were called active. 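Active includes both protection and sensitisation; some change values fall well beyond the stated -50 to +50 range.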 The numbers tell different reagents against one gene apart. Not all columns of the deposit are shown. Not given: the amount of reagent.

two-siRNA summed score (-2 to +2), by gene and reagent
DAP (GeneID 1611): #1 -1 inactive
GNPDA1 (GeneID 10007): #1 0 inactive
C2CD5 (GeneID 9847): #1 1 inactive
PPIAP59 (GeneID 390956): #1 1 inactive
LOC401216: #1 0 inactive
ANO5 (GeneID 203859): #1 1 inactive
DEUP1 (GeneID 159989): #1 0 inactive
TROAP (GeneID 10024): #1 0 inactive
BMP4 (GeneID 652): #1 0 inactive
LOC440734: #1 0 inactive
LOC387690: #1 0 inactive
LOC400019: #1 0 inactive
ZNF268 (GeneID 10795): #1 0 inactive
LOC401441: #1 0 inactive
TFDP2 (GeneID 7029): #1 0 inactive
MARK1 (GeneID 4139): #1 0 inactive
METTL18 (GeneID 92342): #1 0 inactive
KCNMB4 (GeneID 27345): #1 0 inactive
C1QTNF6 (GeneID 114904): #1 0 inactive
SLC49A3 (GeneID 84179): #1 1 inactive
SPAG7 (GeneID 9552): #1 0 inactive
RPL3L (GeneID 6123): #1 2 active
KASH5 (GeneID 147872): #1 0 inactive
LOC390367: #1 0 inactive
CARD9 (GeneID 64170): #1 1 inactive
LY6D (GeneID 8581): #1 0 inactive
LOC441356: #1 0 inactive
MAP2K1 (GeneID 5604): #1 -1 inactive
NOC4L (GeneID 79050): #1 -1 inactive
CBFB (GeneID 865): #1 0 inactive
SPHAR (retired record) (GeneID 10638): #1 0 inactive
ARHGEF4 (GeneID 50649): #1 0 inactive
MMP8 (GeneID 4317): #1 -1 inactive
PANK3 (GeneID 79646): #1 0 inactive
TXNL1 (GeneID 9352): #1 -1 inactive
CRISPLD1 (GeneID 83690): #1 0 inactive
CD83 (GeneID 9308): #1 0 inactive
LOC343069: #1 1 inactive
AMT (GeneID 275): #1 0 inactive
SCGB1A1 (GeneID 7356): #1 0 inactive
CCT6B (GeneID 10693): #1 0 inactive
INS (GeneID 3630): #1 -1 inactive
DUXAP10 (GeneID 503639): #1 0 inactive
KIAA1586 (GeneID 57691): #1 0 inactive
FBXL21P (GeneID 26223): #1 0 inactive
TBC1D5 (GeneID 9779): #1 1 inactive
APBB3 (GeneID 10307): #1 0 inactive
ICA1L (GeneID 130026): #1 0 inactive; #2 0 inactive
LDB2 (GeneID 9079): #1 -1 inactive
DUSP16 (GeneID 80824): #1 0 inactive
TAS2R1 (GeneID 50834): #1 0 inactive
AVPR2 (GeneID 554): #1 0 inactive
DELEC1 (GeneID 50514): #1 0 inactive
MXI1 (GeneID 4601): #1 -1 inactive
KLHL4 (GeneID 56062): #1 0 inactive
KLRK1 (GeneID 22914): #1 -1 inactive

8 entries already listed, ordered by “two-siRNA summed score (-2 to +2)”, lowest first.
gene	reagent no.	two-siRNA summed score (-2 to +2)	call
TFDP2 (GeneID 7029)	1	0	inactive
MARK1 (GeneID 4139)	1	0	inactive
METTL18 (GeneID 92342)	1	0	inactive
KCNMB4 (GeneID 27345)	1	0	inactive
C1QTNF6 (GeneID 114904)	1	0	inactive
SPAG7 (GeneID 9552)	1	0	inactive
SLC49A3 (GeneID 84179)	1	1	inactive
RPL3L (GeneID 6123)	1	2	active
